Data: the M2OR odorant receptor database
Some of the results follow. The calls were merged from several studies; some rest on single wells.

Assays:
Conditions in all cases: stereoisomer not certain
[1] = test system: T1, O11L1
T1 sequence (whole entry): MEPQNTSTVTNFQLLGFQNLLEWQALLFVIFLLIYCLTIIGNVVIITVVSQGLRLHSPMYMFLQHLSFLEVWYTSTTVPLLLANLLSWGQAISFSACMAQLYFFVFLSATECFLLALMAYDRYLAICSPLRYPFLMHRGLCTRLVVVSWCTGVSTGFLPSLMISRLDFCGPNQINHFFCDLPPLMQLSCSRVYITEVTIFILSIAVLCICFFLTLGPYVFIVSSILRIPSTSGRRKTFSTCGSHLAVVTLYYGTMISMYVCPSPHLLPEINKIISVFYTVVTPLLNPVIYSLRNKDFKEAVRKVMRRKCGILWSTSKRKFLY
In short: (§1)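 Values were gathered from published papers (main text and supplementary material), with extra details requested from the original authors when needed, and checked for typos and inconsistencies. Each receptor–molecule pair is called responsive (active) if the original authors judged the measured signal statistically different from baseline, and non-responsive (inactive) otherwise. Assay methods varied by source, often transient mammalian cell-line luciferase assays. Recorded details include cell line, G-protein, co-transfected protein and tags.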

[2] = test system: T2, O12D2
T2 sequence (whole entry): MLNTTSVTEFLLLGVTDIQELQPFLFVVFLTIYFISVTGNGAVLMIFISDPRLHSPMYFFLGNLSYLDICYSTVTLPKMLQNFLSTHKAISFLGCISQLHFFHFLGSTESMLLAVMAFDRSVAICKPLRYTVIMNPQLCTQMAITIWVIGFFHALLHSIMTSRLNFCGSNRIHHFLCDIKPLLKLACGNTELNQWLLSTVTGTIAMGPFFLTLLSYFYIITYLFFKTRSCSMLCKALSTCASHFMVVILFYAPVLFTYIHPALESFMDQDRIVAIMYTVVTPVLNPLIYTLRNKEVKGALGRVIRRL
In short: as §1

[3] = test system: T3, O13C3
T3 sequence (whole entry): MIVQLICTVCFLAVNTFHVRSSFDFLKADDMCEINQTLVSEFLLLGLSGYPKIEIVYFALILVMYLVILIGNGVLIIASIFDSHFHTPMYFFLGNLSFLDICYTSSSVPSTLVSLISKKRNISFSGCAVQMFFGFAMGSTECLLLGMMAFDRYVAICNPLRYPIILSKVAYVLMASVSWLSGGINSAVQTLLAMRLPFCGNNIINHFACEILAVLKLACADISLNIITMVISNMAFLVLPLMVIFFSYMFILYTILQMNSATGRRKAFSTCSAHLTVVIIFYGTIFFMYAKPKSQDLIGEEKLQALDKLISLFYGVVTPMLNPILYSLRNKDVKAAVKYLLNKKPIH
In short: as §1

[4] = test system: T4, O13C5
T4 sequence (whole entry): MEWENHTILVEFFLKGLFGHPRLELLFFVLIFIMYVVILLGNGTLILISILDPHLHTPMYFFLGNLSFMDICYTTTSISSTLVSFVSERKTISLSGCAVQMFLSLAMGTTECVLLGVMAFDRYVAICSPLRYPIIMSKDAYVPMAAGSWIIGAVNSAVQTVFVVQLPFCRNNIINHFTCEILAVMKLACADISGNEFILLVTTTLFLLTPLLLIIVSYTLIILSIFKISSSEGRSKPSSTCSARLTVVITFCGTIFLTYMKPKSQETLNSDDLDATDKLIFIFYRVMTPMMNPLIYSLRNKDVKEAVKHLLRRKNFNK
In short: as §1

[5] = test system: T5, O13C7
T5 sequence (whole entry): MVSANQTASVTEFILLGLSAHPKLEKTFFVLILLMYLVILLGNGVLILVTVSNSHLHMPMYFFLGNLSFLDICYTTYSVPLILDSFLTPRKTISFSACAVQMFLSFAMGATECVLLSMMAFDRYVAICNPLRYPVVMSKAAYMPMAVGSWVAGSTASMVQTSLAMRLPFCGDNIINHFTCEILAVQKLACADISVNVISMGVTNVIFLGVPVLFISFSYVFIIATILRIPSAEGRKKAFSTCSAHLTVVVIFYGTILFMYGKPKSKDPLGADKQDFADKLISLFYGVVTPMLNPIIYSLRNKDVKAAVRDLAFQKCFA
In short: as §1

[6] = test system: T6, O13C9
T6 sequence (whole entry): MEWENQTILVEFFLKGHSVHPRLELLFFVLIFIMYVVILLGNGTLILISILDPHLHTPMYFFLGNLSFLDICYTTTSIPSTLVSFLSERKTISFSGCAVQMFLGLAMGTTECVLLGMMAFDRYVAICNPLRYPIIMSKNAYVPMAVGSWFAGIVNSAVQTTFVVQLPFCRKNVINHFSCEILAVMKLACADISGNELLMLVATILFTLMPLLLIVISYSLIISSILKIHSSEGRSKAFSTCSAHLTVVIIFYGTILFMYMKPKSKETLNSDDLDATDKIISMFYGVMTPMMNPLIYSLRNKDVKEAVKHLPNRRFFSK
In short: as §1

[7] = test system: T7, O13D1
T7 sequence (whole entry): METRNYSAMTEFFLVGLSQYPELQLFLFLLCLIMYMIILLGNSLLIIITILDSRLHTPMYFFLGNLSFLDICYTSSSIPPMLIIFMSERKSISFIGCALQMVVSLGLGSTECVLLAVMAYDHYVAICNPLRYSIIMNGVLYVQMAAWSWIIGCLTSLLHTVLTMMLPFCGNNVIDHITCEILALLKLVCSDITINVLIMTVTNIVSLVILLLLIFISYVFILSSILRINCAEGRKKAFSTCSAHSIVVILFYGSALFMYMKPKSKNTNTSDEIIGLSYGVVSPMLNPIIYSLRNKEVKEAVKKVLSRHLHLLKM
In short: as §1

[8] = test system: T8, O13D1; remark: listed apart in the source
T8 sequence (whole entry): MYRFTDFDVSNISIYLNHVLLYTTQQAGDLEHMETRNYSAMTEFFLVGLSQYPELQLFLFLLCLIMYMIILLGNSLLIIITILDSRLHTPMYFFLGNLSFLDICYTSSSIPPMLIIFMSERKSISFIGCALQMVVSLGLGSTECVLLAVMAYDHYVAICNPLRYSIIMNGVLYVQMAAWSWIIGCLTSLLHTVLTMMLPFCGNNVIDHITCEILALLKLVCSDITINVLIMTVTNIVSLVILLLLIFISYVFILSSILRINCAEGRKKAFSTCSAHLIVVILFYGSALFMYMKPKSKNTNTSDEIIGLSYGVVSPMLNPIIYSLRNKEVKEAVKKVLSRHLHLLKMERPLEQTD
In short: as §1

[9] = test system: T9, O13F1
T9 sequence (whole entry): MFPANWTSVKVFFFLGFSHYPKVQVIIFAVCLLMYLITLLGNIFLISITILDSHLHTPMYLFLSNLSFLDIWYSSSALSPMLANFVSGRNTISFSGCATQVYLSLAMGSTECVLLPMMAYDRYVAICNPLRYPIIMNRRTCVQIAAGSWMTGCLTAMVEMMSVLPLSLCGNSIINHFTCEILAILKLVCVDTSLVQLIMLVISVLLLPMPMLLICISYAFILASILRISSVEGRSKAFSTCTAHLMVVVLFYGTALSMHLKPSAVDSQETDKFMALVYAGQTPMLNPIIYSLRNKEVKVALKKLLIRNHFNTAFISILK
In short: as §1

[10] = test system: T10, O13G1
T10 sequence (whole entry): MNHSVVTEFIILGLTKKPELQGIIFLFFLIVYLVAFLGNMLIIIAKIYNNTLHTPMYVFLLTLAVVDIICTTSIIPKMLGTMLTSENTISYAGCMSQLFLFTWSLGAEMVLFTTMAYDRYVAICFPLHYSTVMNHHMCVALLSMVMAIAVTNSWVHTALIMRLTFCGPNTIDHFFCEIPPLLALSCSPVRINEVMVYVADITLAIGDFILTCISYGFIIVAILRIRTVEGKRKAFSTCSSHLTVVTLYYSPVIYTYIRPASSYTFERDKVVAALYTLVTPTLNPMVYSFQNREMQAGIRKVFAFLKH
In short: as §1

Measured: odorant receptor agonist call

CCCCOC(C)=O
inactive: all assays above

CS
inactive: all assays above

CCC(C)=O
inactive: all assays above
